# Measured data: PubChem BioAssay AID1224828 (NIAID, 2016)
# Assay: 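Regulators linking TLR4 signalling to p65 nuclear translocation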 (primary screen)
# System: mouse RAW264.7 G9 macrophage reporter cells (GFP-p65, Tnf promoter-mCherry)
# Reagent: siRNA pool against mouse genes, 100 nM
# Duration: 2 days siRNA transfection, then 40 min LPS before fixation
# Treatment: LPS (Salmonella minnesota R595) at 10 ng/ml
# Detection: 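Microscopy ratio of nuclear to perinuclear-ring GFP-p65 signal, scaled to the plate median; gene score is the average of two replicate robust z-scores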
# Direction: p65 translocation robust z-score: higher = more nuclear NF-kappaB p65 after LPS than the plate median; nuclear/cytoplasmic p65 ratio: higher = more nuclear NF-kappaB p65
# Call rule: 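Called active when z exceeds 3.3 or falls under -1.56 (median of Tlr4 controls), giving activity score of at least 50; no calls for control wells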
# Calls: active = hit (p65 shift raised or lowered); inactive = no clear change
# This is an unselected part of about 17,000 reagents. 762 of all reagents (4.5%) count as active. 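Active calls include both raised and lowered p65 entry, mostly lowered; wells with fewer than 50 cells lack a z-score.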 Raw values vary from plate to plate and are shown uncorrected. The numbers tell different reagents against one gene apart. Reagent sequences are not shown.
gene knocked down,reagent no.,p65 translocation robust z-score,"nuclear/cytoplasmic p65 ratio, rep 1","nuclear/cytoplasmic p65 ratio, rep 2",low cell count flag,Outcome
Zswim3,1,1.04,1.6,1.37,enough cells to score,inactive
Tmem45a,1,-0.49,1.51,1.57,enough cells to score,inactive
Dnaja4,1,0.18,1.47,1.43,enough cells to score,inactive
Cpb2,1,-0.56,1.37,1.34,enough cells to score,inactive
Cryba2,1,-1.51,1.19,1.25,enough cells to score,inactive
Tnfsf11,1,-0.8,1.37,1.44,enough cells to score,inactive
Bpifb5,1,-0.07,1.54,1.83,enough cells to score,inactive
Npas1,1,0.91,1.62,1.49,enough cells to score,inactive
Sptlc2,1,,1.49,1.18,fewer than 50 cells per well; well left out of scoring,inactive
Or10a3b,1,,1.66,1.37,fewer than 50 cells per well; well left out of scoring,inactive
Trpa1,1,0.41,1.74,1.63,enough cells to score,inactive
Tmprss11d,1,0.76,1.65,2.02,enough cells to score,inactive
Xkr6,1,0.24,1.63,1.87,enough cells to score,inactive
Slc22a6,1,-0.89,1.27,1.17,enough cells to score,inactive
Spcs1,1,-0.85,1.31,1.28,enough cells to score,inactive
BC030500,1,-1.44,1.31,1.66,enough cells to score,inactive
Scart1,1,,1.24,1.43,fewer than 50 cells per well; well left out of scoring,inactive
D830024N08Rik,1,-0.89,1.46,1.4,enough cells to score,inactive
Vasp,1,3.25,1.99,1.59,enough cells to score,inactive
Or6c201,1,,1.43,1.29,fewer than 50 cells per well; well left out of scoring,inactive
NALP6,1,-0.67,1.7,1.47,enough cells to score,inactive
Piwil2,1,0.15,1.56,1.39,enough cells to score,inactive
Adgrf4,1,0.37,1.55,1.62,enough cells to score,inactive
Gltpd2,1,1.32,1.74,2.05,enough cells to score,inactive
Vtcn1,1,-0.07,1.57,1.83,enough cells to score,inactive
Spry1,1,,1.68,1.62,fewer than 50 cells per well; well left out of scoring,inactive
Eif4ebp3,1,-0.1,1.28,1.51,enough cells to score,inactive
9430077A04Rik,1,-0.73,1.32,1.45,enough cells to score,inactive
Prpf18,1,0.11,1.63,1.63,enough cells to score,inactive
Snca,1,0.11,1.52,1.62,enough cells to score,inactive
9630013D21Rik,1,,1.58,1.52,fewer than 50 cells per well; well left out of scoring,inactive
Haghl,1,-1.22,1.24,1.25,enough cells to score,inactive
Or9i16,1,0.25,1.67,1.44,enough cells to score,inactive
Psma2,1,,1.38,1.33,fewer than 50 cells per well; well left out of scoring,inactive
Eif2ak2,1,0.75,1.7,1.56,enough cells to score,inactive
Sf3b2,1,,1.1,1.02,fewer than 50 cells per well; well left out of scoring,inactive
4932414J04Rik,1,,1.27,1.6,fewer than 50 cells per well; well left out of scoring,inactive
Ablim2,1,-0.23,1.61,1.61,enough cells to score,inactive
Pigo,1,-1.36,1.29,1.06,enough cells to score,inactive
Fgd1,1,0.42,1.53,1.41,enough cells to score,inactive
Idnk,1,1.78,1.59,1.7,enough cells to score,inactive
Gnpnat1,1,-1.69,1.42,1.27,enough cells to score,active
Letm2,1,-0.69,1.54,1.6,enough cells to score,inactive
Hmgcs1,1,-0.59,1.28,1.31,enough cells to score,inactive
Ppp1r21,1,0.26,1.54,1.52,enough cells to score,inactive
Cmtr2,1,-0.54,1.46,1.79,enough cells to score,inactive
Kctd12,1,,1.47,1.26,fewer than 50 cells per well; well left out of scoring,inactive
Ubqln1,1,1.6,1.76,1.7,enough cells to score,inactive
Tex19.2,1,,1.37,1.08,fewer than 50 cells per well; well left out of scoring,inactive
Zfp952,1,-0.82,1.63,1.39,enough cells to score,inactive
Ttc23,1,,1.15,1.37,fewer than 50 cells per well; well left out of scoring,inactive
Rfesd,1,-0.4,1.49,1.68,enough cells to score,inactive
Slmap,1,,1.81,1.4,fewer than 50 cells per well; well left out of scoring,inactive
Bmp15,1,-0.06,1.66,1.56,enough cells to score,inactive
Hgd,1,-0.72,1.3,1.32,enough cells to score,inactive
Cdk3,1,-1.07,1.51,1.53,enough cells to score,inactive
Gimap9,1,0.7,1.44,1.65,enough cells to score,inactive
Arhgef4,1,0.39,1.47,1.62,enough cells to score,inactive
Arhgef4,2,,1.36,1.53,fewer than 50 cells per well; well left out of scoring,inactive
